Reference: the supplement of paper PMC10077471
Over roughly 1,900 compounds, “excess over highest single agent (ExcessHSA) synergy score, 6x6 matrix” has its median near -83; the lowest 2% begin near -370. The list shows a part of the results.

system: NCI-H446; assay: excess over highest single agent (ExcessHSA) synergy score, 6x6 matrix; higher = less synergy (more negative = stronger synergy); conditions: 72 h; CellTiter-Glo viability

SMILES | excess over highest single agent
O=C(O)c1c(Cl)c(Cl)c(Cl)c(Cl)c1-c1c2cc(I)c(=O)c(I)c-2oc2c(I)c(O)c(I)cc12 + Cc1sc2c(c1C)C(c1ccc(Cl)cc1)=N[C@@H](CC(=O)OC(C)(C)C)c1nnc(C)n1-2 [NCGC00250412-19] | -111
CN(CCOc1ccc(CC2SC(=O)NC2=O)cc1)c1ccccn1 (stereo not drawn) + Cc1sc2c(c1C)C(c1ccc(Cl)cc1)=N[C@@H](CC(=O)OC(C)(C)C)c1nnc(C)n1-2 [NCGC00250412-19] | -182
CCOC(=O)c1c(C)n(C)c2ccc(O)cc12 + Cc1sc2c(c1C)C(c1ccc(Cl)cc1)=N[C@@H](CC(=O)OC(C)(C)C)c1nnc(C)n1-2 [NCGC00250412-19] | -56.1
CCC(=O)NC[C@H](Cc1ccc(OCCc2nc(-c3ccccc3)oc2C)cc1)N/C(C)=C\C(=O)c1ccc(C(F)(F)F)cc1 + Cc1sc2c(c1C)C(c1ccc(Cl)cc1)=N[C@@H](CC(=O)OC(C)(C)C)c1nnc(C)n1-2 [NCGC00250412-19] | 200
N#Cc1ccc(Oc2ccc3c(c2)COB3O)cc1 + Cc1sc2c(c1C)C(c1ccc(Cl)cc1)=N[C@@H](CC(=O)OC(C)(C)C)c1nnc(C)n1-2 [NCGC00250412-19] | -39.2
CC(N)C12CC3CC(CC(C3)C1)C2 (stereo not drawn) + Cc1sc2c(c1C)C(c1ccc(Cl)cc1)=N[C@@H](CC(=O)OC(C)(C)C)c1nnc(C)n1-2 [NCGC00250412-19] | -112
O=C(N[C@@H](c1ccccc1)[C@@H]1CCCCN1)c1cccc(C(F)(F)F)c1Cl + Cc1sc2c(c1C)C(c1ccc(Cl)cc1)=N[C@@H](CC(=O)OC(C)(C)C)c1nnc(C)n1-2 [NCGC00250412-19] | -153
CCCc1nc(C(C)(C)O)c(C(=O)O)n1Cc1ccc(-c2ccccc2-c2nnn[nH]2)cc1 + Cc1sc2c(c1C)C(c1ccc(Cl)cc1)=N[C@@H](CC(=O)OC(C)(C)C)c1nnc(C)n1-2 [NCGC00250412-19] | -110
COc1ccc2[nH]c([S+]([O-])Cc3ncc(C)c(OC)c3C)nc2c1 (stereo not drawn) + Cc1sc2c(c1C)C(c1ccc(Cl)cc1)=N[C@@H](CC(=O)OC(C)(C)C)c1nnc(C)n1-2 [NCGC00250412-19] | 45.9
COc1nc(-c2ccc3c(c2)OCO3)n(-c2ccc(NC(=O)CSc3ccccc3)cc2)n1 + Cc1sc2c(c1C)C(c1ccc(Cl)cc1)=N[C@@H](CC(=O)OC(C)(C)C)c1nnc(C)n1-2 [NCGC00250412-19] | -11
O=P1(N(CCCl)CCCl)NCCCO1 (stereo not drawn) + Cc1sc2c(c1C)C(c1ccc(Cl)cc1)=N[C@@H](CC(=O)OC(C)(C)C)c1nnc(C)n1-2 [NCGC00250412-19] | 93.6
CC(=O)Nc1ccc(O)cc1 + Cc1sc2c(c1C)C(c1ccc(Cl)cc1)=N[C@@H](CC(=O)OC(C)(C)C)c1nnc(C)n1-2 [NCGC00250412-19] | -55.9
C[C@]12COC(=O)C[C@@H]1CC[C@@H]1[C@@H]2CC[C@@]2(C)[C@H]1CC[C@]2(C)O + Cc1sc2c(c1C)C(c1ccc(Cl)cc1)=N[C@@H](CC(=O)OC(C)(C)C)c1nnc(C)n1-2 [NCGC00250412-19] | -220
O=C1NC(=O)C(c2cnc3ccccn23)=C1c1cn2c3c(cccc13)CN(C(=O)N1CCOCC1)CC2 + Cc1sc2c(c1C)C(c1ccc(Cl)cc1)=N[C@@H](CC(=O)OC(C)(C)C)c1nnc(C)n1-2 [NCGC00250412-19] | -24.9
Nc1cccc2c1CN(C1CCC(=O)NC1=O)C2=O (stereo not drawn) + Cc1sc2c(c1C)C(c1ccc(Cl)cc1)=N[C@@H](CC(=O)OC(C)(C)C)c1nnc(C)n1-2 [NCGC00250412-19] | -79.8
COc1cc2nc(-c3cc(F)ccc3O)nc(N[C@@H]3CNC[C@H]3C(C)(C)O)c2cc1OC + Cc1sc2c(c1C)C(c1ccc(Cl)cc1)=N[C@@H](CC(=O)OC(C)(C)C)c1nnc(C)n1-2 [NCGC00250412-19] | 40.9
CN1C(=O)CCS(=O)(=O)C1c1ccc(Cl)cc1 (stereo not drawn) + Cc1sc2c(c1C)C(c1ccc(Cl)cc1)=N[C@@H](CC(=O)OC(C)(C)C)c1nnc(C)n1-2 [NCGC00250412-19] | -51.7
CN(C)[C@@H]1C(=O)C(C(N)=O)=C(O)[C@@]2(O)C(=O)C3=C(O)c4c(O)cccc4[C@@](C)(O)[C@H]3[C@H](O)[C@@H]12 + Cc1sc2c(c1C)C(c1ccc(Cl)cc1)=N[C@@H](CC(=O)OC(C)(C)C)c1nnc(C)n1-2 [NCGC00250412-19] | -9.12
Cn1c2ccccc2c2c3c(c4c5ccccc5n(CCC#N)c4c21)CNC3=O + Cc1sc2c(c1C)C(c1ccc(Cl)cc1)=N[C@@H](CC(=O)OC(C)(C)C)c1nnc(C)n1-2 [NCGC00250412-19] | 242

Look-ups from above:
Under excess over highest single agent, COc1nc(-c2ccc3c(c2)OCO3)n(-c2ccc(NC(=O)CSc3ccccc3)cc2)n1 + Cc1sc2c(c1C)C(c1ccc(Cl)cc1)=N[C@@H](CC(=O)OC(C)(C)C)c1nnc(C)n1-2 [NCGC00250412-19] reads -11
Under excess over highest single agent, Cn1c2ccccc2c2c3c(c4c5ccccc5n(CCC#N)c4c21)CNC3=O + Cc1sc2c(c1C)C(c1ccc(Cl)cc1)=N[C@@H](CC(=O)OC(C)(C)C)c1nnc(C)n1-2 [NCGC00250412-19] reads 242

(further entries)

SMILES | excess over highest single agent
CCc1ccc(C(=O)Nc2cc(CN3CCN(C)CC3)cc(C(F)(F)F)c2)cc1C#Cc1cnc2ccnn2c1 + Cc1sc2c(c1C)C(c1ccc(Cl)cc1)=N[C@@H](CC(=O)OC(C)(C)C)c1nnc(C)n1-2 [NCGC00250412-19] | -7.02
Cc1ccccc1N1C(=O)c2cc(S(N)(=O)=O)c(Cl)cc2NC1C (stereo not drawn) + Cc1sc2c(c1C)C(c1ccc(Cl)cc1)=N[C@@H](CC(=O)OC(C)(C)C)c1nnc(C)n1-2 [NCGC00250412-19] | -15.5
O=C1N(c2ccccc2)c2ccccc2C1(Cc1ccncc1)Cc1ccncc1 + Cc1sc2c(c1C)C(c1ccc(Cl)cc1)=N[C@@H](CC(=O)OC(C)(C)C)c1nnc(C)n1-2 [NCGC00250412-19] | -197
C=CC(=O)N1CCC[C@@H](n2nc(-c3ccc(Oc4ccccc4)cc3)c3c(N)ncnc32)C1 + Cc1sc2c(c1C)C(c1ccc(Cl)cc1)=N[C@@H](CC(=O)OC(C)(C)C)c1nnc(C)n1-2 [NCGC00250412-19] | -93.4
O=C(O)c1ccccc1C(=O)Nc1ccc(-c2ccccc2)cc1 + Cc1sc2c(c1C)C(c1ccc(Cl)cc1)=N[C@@H](CC(=O)OC(C)(C)C)c1nnc(C)n1-2 [NCGC00250412-19] | -86.9
CC1=C(CC(=O)O)c2cc(F)ccc2/C1=C\c1ccc([S+](C)[O-])cc1 (stereo not drawn) + Cc1sc2c(c1C)C(c1ccc(Cl)cc1)=N[C@@H](CC(=O)OC(C)(C)C)c1nnc(C)n1-2 [NCGC00250412-19] | -62.7
C=CC(=O)Nc1ccc2ncnc(Nc3ccc(OCc4cccc(F)c4)c(Cl)c3)c2c1 + Cc1sc2c(c1C)C(c1ccc(Cl)cc1)=N[C@@H](CC(=O)OC(C)(C)C)c1nnc(C)n1-2 [NCGC00250412-19] | -234
Cc1nc(N)sc1-c1ccnc(Nc2ccc(N3CCOCC3)cc2)n1 + Cc1sc2c(c1C)C(c1ccc(Cl)cc1)=N[C@@H](CC(=O)OC(C)(C)C)c1nnc(C)n1-2 [NCGC00250412-19] | -56.9
C[C@]12CC[C@@H]3c4ccc(O)cc4CC[C@H]3[C@@H]1C[C@@H](O)[C@@H]2O + Cc1sc2c(c1C)C(c1ccc(Cl)cc1)=N[C@@H](CC(=O)OC(C)(C)C)c1nnc(C)n1-2 [NCGC00250412-19] | -52.9
C[C@@H]1CN(CC(=O)Nc2ccc3c(c2)Cc2cccc(-c4cc(=O)cc(N5CCOCC5)o4)c2S3)C[C@H](C)O1 + Cc1sc2c(c1C)C(c1ccc(Cl)cc1)=N[C@@H](CC(=O)OC(C)(C)C)c1nnc(C)n1-2 [NCGC00250412-19] | -4.5
Cc1noc(NS(=O)(=O)c2ccc(N)cc2)c1C + Cc1sc2c(c1C)C(c1ccc(Cl)cc1)=N[C@@H](CC(=O)OC(C)(C)C)c1nnc(C)n1-2 [NCGC00250412-19] | 385
CCc1cccc2c3c([nH]c12)C(CC)(CC(=O)O)OCC3 (stereo not drawn) + Cc1sc2c(c1C)C(c1ccc(Cl)cc1)=N[C@@H](CC(=O)OC(C)(C)C)c1nnc(C)n1-2 [NCGC00250412-19] | -115
CCC[C@H](NC(=O)[C@@H]1[C@H]2CCC[C@H]2CN1C(=O)[C@@H](NC(=O)[C@@H](NC(=O)c1cnccn1)C1CCCCC1)C(C)(C)C)C(=O)C(=O)NC1CC1 + Cc1sc2c(c1C)C(c1ccc(Cl)cc1)=N[C@@H](CC(=O)OC(C)(C)C)c1nnc(C)n1-2 [NCGC00250412-19] | -97.5
CCOC(=O)[C@H](CCc1ccccc1)N[C@@H](C)C(=O)N1CCC[C@H]1C(=O)O + Cc1sc2c(c1C)C(c1ccc(Cl)cc1)=N[C@@H](CC(=O)OC(C)(C)C)c1nnc(C)n1-2 [NCGC00250412-19] | -63.7
CNC(=O)[C@H](Cc1ccccc1)NC(=O)[C@H](CC(C)C)[C@H](CSc1cccs1)C(=O)NO + Cc1sc2c(c1C)C(c1ccc(Cl)cc1)=N[C@@H](CC(=O)OC(C)(C)C)c1nnc(C)n1-2 [NCGC00250412-19] | -173
CC1(C)CCC(CN2CCN(c3ccc(C(=O)NS(=O)(=O)c4ccc(NCC5CCOCC5)c([N+](=O)[O-])c4)c(Oc4cnc5[nH]ccc5c4)c3)CC2)=C(c2ccc(Cl)cc2)C1 + Cc1sc2c(c1C)C(c1ccc(Cl)cc1)=N[C@@H](CC(=O)OC(C)(C)C)c1nnc(C)n1-2 [NCGC00250412-19] | -286
CCCCCCCCCCC[C@@H](C[C@@H]1OC(=O)[C@H]1CCCCCC)OC(=O)[C@H](CC(C)C)NC=O + Cc1sc2c(c1C)C(c1ccc(Cl)cc1)=N[C@@H](CC(=O)OC(C)(C)C)c1nnc(C)n1-2 [NCGC00250412-19] | -106
CS(=O)(=O)c1cccc(CNc2nc(Nc3ccc4c(c3)CCC(=O)N4)ncc2C(F)(F)F)c1 + Cc1sc2c(c1C)C(c1ccc(Cl)cc1)=N[C@@H](CC(=O)OC(C)(C)C)c1nnc(C)n1-2 [NCGC00250412-19] | 58.6
Cc1cccc(/C=N/Nc2cc(N3CCOCC3)nc(OCCc3ccccn3)n2)c1 + Cc1sc2c(c1C)C(c1ccc(Cl)cc1)=N[C@@H](CC(=O)OC(C)(C)C)c1nnc(C)n1-2 [NCGC00250412-19] | -218
